Assay results from publication PMC7971890.
Results are given in words; binding and its absence hold for the method and conditions named. In cells and extracts the contact can be indirect.

Sequences of proteins named here, by UniProt entry; tags and fusion partners are left off.
UniProt Q99942: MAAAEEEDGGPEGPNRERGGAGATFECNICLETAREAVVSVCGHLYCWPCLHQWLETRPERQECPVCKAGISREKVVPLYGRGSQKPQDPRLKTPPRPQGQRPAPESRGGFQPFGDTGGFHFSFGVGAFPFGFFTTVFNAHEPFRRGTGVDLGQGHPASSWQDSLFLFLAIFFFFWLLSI

Target: T1, In vitro-translated IRF3 (UniProt Q14653)
T1 sequence: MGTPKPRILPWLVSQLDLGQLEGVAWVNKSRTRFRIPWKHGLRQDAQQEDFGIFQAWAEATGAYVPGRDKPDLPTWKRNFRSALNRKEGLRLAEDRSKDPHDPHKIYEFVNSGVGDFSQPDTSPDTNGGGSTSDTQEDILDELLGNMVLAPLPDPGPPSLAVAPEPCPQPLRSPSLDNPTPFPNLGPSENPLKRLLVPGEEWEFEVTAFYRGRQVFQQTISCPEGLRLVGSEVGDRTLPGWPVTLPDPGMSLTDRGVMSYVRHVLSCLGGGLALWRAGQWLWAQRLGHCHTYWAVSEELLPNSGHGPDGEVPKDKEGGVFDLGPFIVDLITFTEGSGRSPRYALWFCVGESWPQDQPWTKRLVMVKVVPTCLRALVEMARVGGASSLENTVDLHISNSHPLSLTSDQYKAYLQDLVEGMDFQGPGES
Test: co-IP; in vitro transcribed and translated IRF3 and RNF5 mixed, IP with IRF3 antibody (Fig 6H, far-right panel)

binding: no binding
Substance: In vitro-translated RNF5 (from UniProt Q99942 1-180) (enzyme)
